Measured values reported in patent publication US20100015126A1, “Methods of Binding of Cross-Beta Structures By Chaperones” (priority 2006, published 2010).

Experiment: Limulus Amebocyte Lysate (LAL) endotoxin assay

B1: dOVA standard: heat-denatured chicken ovalbumin (protein)
chain: GSIGAASMEFCFDVFKELKVHHANENIFYCPIAIMSALAMVYLGAKDSTRTQINKVVRFDKLPGFGDSIEAQCGTSVNVHSSLRDILNQITKPNDVYSFSLASRLYAEERYPILPEYLQCVKELYRGGLEPINFQTAADQARELINSWVESQTNGIIRNVLQPSSVDSQTAMVLVNAIVFKGLWEKAFKDEDTQAMPFRVTEQESKPVQMMYQIGLFRVASMASEKMKILELPFASGTMSMLVLLPDEVSGLEQLESIINFEKLTEWTSSNVMEERKIKVYLPRMKMEEKYNLTSVLMAMGITDVFSSSANLSGISSAESLKISQAVHAAHAEINEAGREVVGSAEAGVDAASVSEEFRADHPFLFCIKHIATNAVLFFGRCVSP
- Estimated LPS content (estimated with LPS standard curve): 250 ng/mL
- Endotoxin level (EU) (stock solutions): 115.6 EU
